Measurements as given in ChEMBL document CHEMBL1938276, “Design and synthesis of 2-heterocyclyl-3-arylthio-1H-indoles as potent tubulin polymerization and cell growth inhibitors with improved metabolic stability” (J Med Chem, 2011).

System: MCF7
Assay: Growth inhibition of human MCF7 cells after 96 hrs
Format: functional, cell-based
Details: MCF7, 96 h

COc1cc2c(c(OC)c1OC)-c1ccc(OC)c(=O)cc1[C@@H](NC(C)=O)CC2 [COLCHICINE]
IC50: 5 nM
